In paper doi:10.1101/2020.10.06.328641:
These are yes or no findings as the source states them, for the method shown. In cells and extracts the contact can be indirect. Here binding means that the protein was enriched with, or labelled near, the bait; the list need not be complete.

Target: ORF20-BirA (KSHV ORF20 with the BirA R118G biotin ligase fused at its C-terminus) (KSHV (human herpesvirus 8))
Assay: proximity labelling

| Binder | binding |
| --- | --- |
| KSHV ORF59, DNA polymerase processivity factor (protein, UniProt F5HID2 1-396) MPVDFHYGVRVDVTLLSKIRRVNEHIKSATKTGVVQVHGSACTPTLSVLSSVGTAGVLGLRIKNALTPLVGHTEGSGDVSFSFRNTSVGSGFTHTRELFGANVLDAGIAFYRKGEACDTGAQPQFVRTTISYGDNLTSTVHKSVVDQKGILPFHDRMEAGGRTTRLLLCGKTGAFLLKWLRQQKTKEDQTVTVSVSETLSIVTFSLGGVSKIIDFKPETKPVSGWDGLKGKKSVDVGVVHTDALSRVSLESLIAALRLCKVPGWFTPGLIWHSNEILEVEGVPTGCQSGDVKLSVLLLEVNRSVSAEGGESSQKVPDSIPDSRRQPELESPDSPPLTPVGPFGPLEDASEDAASVTSCPPAAPTKDSTKRPHKRRSDSSQSRDRGKVPKTTFNPLI | binds |
| OASL (protein, UniProt Q15646 1-514) MALMQELYSTPASRLDSFVAQWLQPHREWKEEVLDAVRTVEEFLRQEHFQGKRGLDQDVRVLKVVKVGSFGNGTVLRSTREVELVAFLSCFHSFQEAAKHHKDVLRLIWKTMWQSQDLLDLGLEDLRMEQRVPDALVFTIQTRGTAEPITVTIVPAYRALGPSLPNSQPPPEVYVSLIKACGGPGNFCPSFSELQRNFVKHRPTKLKSLLRLVKHWYQQYVKARSPRANLPPLYALELLTIYAWEMGTEEDENFMLDEGFTTVMDLLLEYEVICIYWTKYYTLHNAIIEDCVRKQLKKERPIILDPADPTLNVAEGYRWDIVAQRASQCLKQDCCYDNRENPISSWNVKRARDIHLTVEQRGYPDFNLIVNPYEPIRKVKEKIRRTRGYSGLQRLSFQVPGSERQLLSSRCSLAKYGIFSHTHIYLLETIPSEIQVFVKNPDGGSYAYAINPNSFILGLKQQIEDQQGLPKKQQQLEFQGQVLQDWLGLGIYGIQDSDTLILSKKKGEALFPAS | binds |
